Source: US20230094162A1
No constants are given. Whether binding was seen depends on the method and setting. Some binding calls cover weakened binding; strength is not graded here.

Sequences of proteins named here, by UniProt entry; tags and fusion partners are left off. Residues count along the entry.
UniProt Q9NZQ7, residues 19-290: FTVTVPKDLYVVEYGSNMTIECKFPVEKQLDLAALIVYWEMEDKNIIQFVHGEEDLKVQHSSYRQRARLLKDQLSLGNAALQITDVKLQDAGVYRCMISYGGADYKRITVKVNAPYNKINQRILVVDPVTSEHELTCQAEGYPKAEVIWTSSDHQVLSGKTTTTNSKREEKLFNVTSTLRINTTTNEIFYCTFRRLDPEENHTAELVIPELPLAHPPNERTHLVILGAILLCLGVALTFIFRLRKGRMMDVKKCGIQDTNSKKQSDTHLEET

Target: PD-L1 expressed on the cell surface (CHO/PD-L1 cells) (UniProt Q9NZQ7)
Test: flow cytometry (FACS) on CHO cells expressing PD-L1, MFI

- binding: binds
B1: hPD-L1 MAB-2F (antibody) (antibody, V domains shown)
VH: EVQLVESGGGLVQPGGSLRLSCAASGFTFSSYTMSWVRQAPGKGLEWVAYISIKGGTTYYPDTVKGRFTISRDNAKNTLYLQMNSLKTEDTAVYYCARQGLPYYGDYWGQGTLVTVSS
VL: DIQMTQSPSSLSASVGDRVTITCKASQDVNEAVAWYQQKPGKAPKLLIYWASTRHTGVPSRFSGSGSGTDFTLTISSLQPEDFATYYCQQHYNTPLTFGQGTKVEIK
